Measurements published in the supplement of paper PMC10849652.
This is one part of the list.

Sequences of proteins named here, by UniProt entry; tags and fusion partners are left off. A change or cut given only in a name is not applied to a line headed by its entry.
UniProt P15529: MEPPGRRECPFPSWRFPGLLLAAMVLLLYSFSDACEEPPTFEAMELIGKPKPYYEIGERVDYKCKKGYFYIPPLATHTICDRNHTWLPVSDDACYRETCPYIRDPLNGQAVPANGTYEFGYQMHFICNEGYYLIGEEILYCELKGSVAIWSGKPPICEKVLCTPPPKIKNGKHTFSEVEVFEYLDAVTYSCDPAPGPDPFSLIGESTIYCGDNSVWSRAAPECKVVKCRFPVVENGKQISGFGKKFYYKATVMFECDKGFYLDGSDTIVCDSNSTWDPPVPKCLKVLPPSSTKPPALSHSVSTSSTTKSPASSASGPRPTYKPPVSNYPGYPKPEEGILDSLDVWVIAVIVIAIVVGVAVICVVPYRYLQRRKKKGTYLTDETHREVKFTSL
UniProt Q8IX12: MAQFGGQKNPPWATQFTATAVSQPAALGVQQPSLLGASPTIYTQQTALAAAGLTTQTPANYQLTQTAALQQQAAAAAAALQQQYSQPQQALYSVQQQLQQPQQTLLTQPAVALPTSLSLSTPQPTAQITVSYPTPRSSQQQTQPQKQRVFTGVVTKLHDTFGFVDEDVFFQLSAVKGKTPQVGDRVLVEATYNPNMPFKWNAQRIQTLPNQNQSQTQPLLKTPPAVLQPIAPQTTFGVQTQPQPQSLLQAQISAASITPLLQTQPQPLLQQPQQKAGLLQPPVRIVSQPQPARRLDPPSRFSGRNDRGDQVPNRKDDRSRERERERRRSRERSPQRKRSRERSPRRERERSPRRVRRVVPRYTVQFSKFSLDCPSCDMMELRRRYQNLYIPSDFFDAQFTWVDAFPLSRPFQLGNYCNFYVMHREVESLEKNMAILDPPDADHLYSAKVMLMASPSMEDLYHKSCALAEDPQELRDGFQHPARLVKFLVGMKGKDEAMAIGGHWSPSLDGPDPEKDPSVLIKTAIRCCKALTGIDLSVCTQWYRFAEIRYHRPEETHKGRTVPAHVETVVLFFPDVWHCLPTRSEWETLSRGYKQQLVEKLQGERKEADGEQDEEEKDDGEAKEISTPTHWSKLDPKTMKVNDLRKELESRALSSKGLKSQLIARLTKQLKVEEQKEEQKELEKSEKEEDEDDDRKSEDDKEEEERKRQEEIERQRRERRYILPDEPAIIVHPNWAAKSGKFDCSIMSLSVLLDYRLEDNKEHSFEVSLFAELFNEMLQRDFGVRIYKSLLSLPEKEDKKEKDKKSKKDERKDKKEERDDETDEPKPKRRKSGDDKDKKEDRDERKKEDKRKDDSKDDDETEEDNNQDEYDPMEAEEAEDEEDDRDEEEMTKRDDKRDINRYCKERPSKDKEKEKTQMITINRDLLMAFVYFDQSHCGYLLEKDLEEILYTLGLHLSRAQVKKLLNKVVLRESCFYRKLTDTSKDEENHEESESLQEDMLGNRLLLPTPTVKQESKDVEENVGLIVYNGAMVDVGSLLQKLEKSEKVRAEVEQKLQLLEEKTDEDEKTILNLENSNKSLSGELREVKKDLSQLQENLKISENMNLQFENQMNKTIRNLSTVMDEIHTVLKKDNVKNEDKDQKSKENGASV
UniProt P16152: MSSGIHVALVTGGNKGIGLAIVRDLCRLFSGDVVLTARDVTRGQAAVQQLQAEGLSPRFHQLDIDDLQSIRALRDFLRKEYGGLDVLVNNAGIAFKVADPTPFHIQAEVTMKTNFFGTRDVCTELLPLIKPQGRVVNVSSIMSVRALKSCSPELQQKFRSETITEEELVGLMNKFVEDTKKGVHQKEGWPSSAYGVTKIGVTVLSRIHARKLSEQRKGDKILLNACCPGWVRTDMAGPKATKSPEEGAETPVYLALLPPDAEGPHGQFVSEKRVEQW
UniProt Q9GZT6: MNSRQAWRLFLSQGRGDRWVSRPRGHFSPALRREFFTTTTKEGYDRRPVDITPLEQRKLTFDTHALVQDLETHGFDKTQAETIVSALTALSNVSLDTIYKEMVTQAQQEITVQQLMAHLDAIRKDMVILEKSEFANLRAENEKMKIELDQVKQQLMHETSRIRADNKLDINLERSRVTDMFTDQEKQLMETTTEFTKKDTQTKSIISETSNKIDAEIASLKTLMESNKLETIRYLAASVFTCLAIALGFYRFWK
UniProt P30260, whole entry, looked up: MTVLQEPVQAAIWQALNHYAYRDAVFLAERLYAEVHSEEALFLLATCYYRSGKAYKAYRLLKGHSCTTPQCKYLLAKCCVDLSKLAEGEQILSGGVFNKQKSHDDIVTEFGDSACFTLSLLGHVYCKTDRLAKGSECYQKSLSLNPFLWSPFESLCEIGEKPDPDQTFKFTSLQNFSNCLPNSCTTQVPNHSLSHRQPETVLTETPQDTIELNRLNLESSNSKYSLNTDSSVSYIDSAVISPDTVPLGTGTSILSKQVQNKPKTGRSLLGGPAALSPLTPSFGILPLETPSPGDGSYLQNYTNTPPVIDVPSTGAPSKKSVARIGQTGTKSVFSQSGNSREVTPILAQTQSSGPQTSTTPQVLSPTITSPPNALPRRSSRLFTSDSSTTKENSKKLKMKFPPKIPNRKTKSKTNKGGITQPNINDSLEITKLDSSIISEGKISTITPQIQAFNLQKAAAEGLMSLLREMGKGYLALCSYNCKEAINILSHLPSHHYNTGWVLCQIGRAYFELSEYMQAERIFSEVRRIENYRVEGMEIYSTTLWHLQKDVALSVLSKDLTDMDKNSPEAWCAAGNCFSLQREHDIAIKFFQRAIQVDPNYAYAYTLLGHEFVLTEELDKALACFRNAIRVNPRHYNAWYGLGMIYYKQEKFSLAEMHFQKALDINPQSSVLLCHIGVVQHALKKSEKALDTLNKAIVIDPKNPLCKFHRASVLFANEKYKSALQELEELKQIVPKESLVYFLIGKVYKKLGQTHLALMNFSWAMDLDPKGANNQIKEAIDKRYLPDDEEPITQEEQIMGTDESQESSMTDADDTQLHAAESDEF
UniProt P19256, whole entry, looked up: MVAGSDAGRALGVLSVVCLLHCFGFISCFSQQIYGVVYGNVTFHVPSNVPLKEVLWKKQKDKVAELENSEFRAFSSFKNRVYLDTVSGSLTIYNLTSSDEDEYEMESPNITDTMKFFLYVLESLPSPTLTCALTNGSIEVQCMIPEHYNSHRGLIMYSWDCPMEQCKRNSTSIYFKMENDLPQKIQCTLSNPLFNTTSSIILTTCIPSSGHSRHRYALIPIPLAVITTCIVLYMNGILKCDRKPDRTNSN
UniProt Q86WR0: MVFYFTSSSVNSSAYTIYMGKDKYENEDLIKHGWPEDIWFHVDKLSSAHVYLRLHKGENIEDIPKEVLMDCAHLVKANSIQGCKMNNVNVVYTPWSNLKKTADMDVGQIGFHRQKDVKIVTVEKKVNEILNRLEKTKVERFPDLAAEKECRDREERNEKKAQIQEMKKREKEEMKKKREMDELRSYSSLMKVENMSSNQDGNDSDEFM
UniProt P49368: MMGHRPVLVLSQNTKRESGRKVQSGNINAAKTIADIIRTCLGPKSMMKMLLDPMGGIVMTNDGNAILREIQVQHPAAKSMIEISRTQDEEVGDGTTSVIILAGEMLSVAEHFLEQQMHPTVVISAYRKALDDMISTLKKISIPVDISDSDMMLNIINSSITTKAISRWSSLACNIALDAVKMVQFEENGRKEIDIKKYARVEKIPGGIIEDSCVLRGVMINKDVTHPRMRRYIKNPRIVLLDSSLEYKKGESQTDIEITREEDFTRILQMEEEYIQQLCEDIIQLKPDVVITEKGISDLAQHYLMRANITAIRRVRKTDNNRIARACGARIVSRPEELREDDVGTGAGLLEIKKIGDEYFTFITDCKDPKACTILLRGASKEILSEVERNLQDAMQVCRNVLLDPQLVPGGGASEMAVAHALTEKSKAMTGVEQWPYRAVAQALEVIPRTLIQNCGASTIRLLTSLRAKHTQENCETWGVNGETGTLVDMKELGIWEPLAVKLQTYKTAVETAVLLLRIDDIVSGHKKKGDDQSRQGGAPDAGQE
UniProt Q6NZI2: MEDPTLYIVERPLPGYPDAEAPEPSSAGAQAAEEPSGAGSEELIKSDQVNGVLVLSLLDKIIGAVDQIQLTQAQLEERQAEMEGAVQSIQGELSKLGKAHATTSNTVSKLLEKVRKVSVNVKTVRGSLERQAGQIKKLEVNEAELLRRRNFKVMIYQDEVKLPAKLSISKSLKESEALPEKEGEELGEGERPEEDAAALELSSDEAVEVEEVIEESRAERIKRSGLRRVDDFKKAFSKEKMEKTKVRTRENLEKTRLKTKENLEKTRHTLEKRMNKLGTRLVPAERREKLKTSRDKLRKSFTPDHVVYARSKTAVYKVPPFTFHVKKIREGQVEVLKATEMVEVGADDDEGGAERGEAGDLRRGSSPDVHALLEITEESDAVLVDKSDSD
UniProt Q9HA77: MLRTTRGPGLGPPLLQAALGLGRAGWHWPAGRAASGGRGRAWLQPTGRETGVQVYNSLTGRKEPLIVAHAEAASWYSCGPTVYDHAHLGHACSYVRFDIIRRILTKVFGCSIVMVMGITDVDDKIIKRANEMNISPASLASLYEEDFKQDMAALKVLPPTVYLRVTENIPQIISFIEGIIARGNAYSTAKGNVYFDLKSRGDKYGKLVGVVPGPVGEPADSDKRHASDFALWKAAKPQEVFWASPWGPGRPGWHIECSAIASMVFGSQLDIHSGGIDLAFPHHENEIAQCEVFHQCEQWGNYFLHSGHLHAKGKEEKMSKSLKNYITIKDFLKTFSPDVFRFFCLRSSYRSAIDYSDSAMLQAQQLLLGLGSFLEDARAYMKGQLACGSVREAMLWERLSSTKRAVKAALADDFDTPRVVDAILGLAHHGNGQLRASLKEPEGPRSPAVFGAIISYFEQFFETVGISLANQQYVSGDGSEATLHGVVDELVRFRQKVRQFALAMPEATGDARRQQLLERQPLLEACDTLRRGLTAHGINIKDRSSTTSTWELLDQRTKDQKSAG
UniProt Q9Y3X0: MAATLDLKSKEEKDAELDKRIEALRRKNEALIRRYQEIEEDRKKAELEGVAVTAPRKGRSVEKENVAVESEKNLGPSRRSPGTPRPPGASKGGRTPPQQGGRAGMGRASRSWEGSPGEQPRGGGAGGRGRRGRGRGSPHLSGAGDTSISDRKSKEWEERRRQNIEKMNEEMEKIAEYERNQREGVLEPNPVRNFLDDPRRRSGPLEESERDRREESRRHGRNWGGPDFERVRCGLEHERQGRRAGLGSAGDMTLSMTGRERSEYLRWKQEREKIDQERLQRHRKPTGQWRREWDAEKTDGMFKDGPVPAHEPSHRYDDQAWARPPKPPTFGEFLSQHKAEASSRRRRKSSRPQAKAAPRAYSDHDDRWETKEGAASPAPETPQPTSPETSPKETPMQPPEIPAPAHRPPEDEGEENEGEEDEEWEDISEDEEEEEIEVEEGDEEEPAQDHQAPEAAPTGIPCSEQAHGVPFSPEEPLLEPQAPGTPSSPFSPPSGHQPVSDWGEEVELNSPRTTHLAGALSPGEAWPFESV
UniProt P48960: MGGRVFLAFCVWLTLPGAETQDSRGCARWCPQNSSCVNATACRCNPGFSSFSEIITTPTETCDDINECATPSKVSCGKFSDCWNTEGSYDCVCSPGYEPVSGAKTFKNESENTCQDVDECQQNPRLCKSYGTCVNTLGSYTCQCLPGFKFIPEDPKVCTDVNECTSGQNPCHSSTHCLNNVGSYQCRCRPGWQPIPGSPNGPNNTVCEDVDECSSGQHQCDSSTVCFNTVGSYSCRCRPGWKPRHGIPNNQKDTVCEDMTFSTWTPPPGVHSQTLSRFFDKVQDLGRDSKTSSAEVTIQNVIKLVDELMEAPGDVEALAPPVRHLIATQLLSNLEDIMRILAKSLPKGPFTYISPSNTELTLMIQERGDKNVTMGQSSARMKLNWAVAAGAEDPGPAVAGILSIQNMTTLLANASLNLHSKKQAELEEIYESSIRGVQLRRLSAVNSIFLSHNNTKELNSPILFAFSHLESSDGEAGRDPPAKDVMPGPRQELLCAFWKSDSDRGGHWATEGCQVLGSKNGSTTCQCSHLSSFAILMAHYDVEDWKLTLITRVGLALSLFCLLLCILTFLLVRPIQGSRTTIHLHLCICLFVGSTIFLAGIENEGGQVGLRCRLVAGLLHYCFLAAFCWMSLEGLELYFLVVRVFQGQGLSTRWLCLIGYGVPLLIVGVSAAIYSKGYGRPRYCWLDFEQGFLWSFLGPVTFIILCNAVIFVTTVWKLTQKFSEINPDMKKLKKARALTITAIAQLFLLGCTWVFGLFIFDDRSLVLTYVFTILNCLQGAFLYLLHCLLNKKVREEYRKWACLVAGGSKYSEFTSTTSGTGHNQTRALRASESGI
UniProt Q7L3B6: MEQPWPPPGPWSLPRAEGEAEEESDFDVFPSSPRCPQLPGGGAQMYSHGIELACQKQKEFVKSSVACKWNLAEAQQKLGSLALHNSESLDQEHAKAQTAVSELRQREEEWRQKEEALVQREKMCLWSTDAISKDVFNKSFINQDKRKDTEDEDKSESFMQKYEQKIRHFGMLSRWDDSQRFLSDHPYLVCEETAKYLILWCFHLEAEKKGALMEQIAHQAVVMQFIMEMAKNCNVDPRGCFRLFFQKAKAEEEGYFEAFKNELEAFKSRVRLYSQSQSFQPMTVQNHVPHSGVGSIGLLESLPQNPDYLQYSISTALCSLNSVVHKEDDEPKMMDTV

How the values were obtained:
Test in all cases: log2 fold change, soluble protein after heating vs DMSO (PISA); higher = thermal stabilisation; K562 cells, 10 uM, 30 min; active = over 0.2 and 3.5 SD of the protein, either way, in both replicates (recomputed)
[1] = compound: Cc1ccc(NC(=O)c2ccc(CN3CC[C@H](N(C)C)C3)c(C(F)(F)F)c2)cc1Nc1nccc(-c2cncnc2)n1 [bafetinib]
In short: (§1)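 K562 cells at 2×10^6 cells/mL were treated for 30 min with 10 μM compound, and aliquots were heated for 3 min over 48°C-58°C before pooling. Extraction used PBS with 0.5% NP-40 at 4°C, and soluble protein was the supernatant after 21,000xg for 90 min, measured by TMTpro 16plex LC-MS/MS with channel sums equalised. Thermal stability values, relative to control samples and from duplicates, are log2 fold changes.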

[2] = compound: Cc1cccc(CC(=O)N2CCc3c2ccc(-c2cn(C)c4ncnc(N)c24)c3F)n1
In short: as §1

[3] = compound: Cc1cn(-c2cc(NC(=O)c3ccc(C)c(Nc4nccc(-c5cccnc5)n4)c3)cc(C(F)(F)F)c2)cn1 [nilotinib]
In short: as §1

[4] = compound: Cc1nc(Nc2n[nH]c3c2CN(C(=O)N[C@H](CN(C)C)c2ccccc2)C3(C)C)c2sccc2n1
In short: as §1

[5] = compound: Cc1nc(Nc2ncc(C(=O)Nc3c(C)cccc3Cl)s2)cc(N2CCN(CCO)CC2)n1 [dasatinib]
In short: as §1

[6] = compound: Cc1ncc(-c2ccnc(Nc3ccc(S(C)(=O)=O)cc3)n2)n1C(C)C
In short: as §1

[7] = compound: Cn1cc(-c2ccc3c(c2)CCN3C(=O)Cc2cccc(C(F)(F)F)c2)c2c(N)ncnc21
In short: as §1

[8] = compound: Cn1cc(-c2ccc3nnc(C(F)(F)c4ccc5ncccc5c4)n3n2)cn1
In short: as §1

[9] = compound: Cn1cncc1[C@@](N)(c1ccc(Cl)cc1)c1ccc2c(c1)c(-c1cccc(Cl)c1)cc(=O)n2C [tipifarnib]
In short: as §1

[10] = compound: FC(F)(F)c1ccc(/C=C/c2nc(COc3ccc(CCCCn4ccnn4)cc3)co2)cc1 [mubritinib]
In short: as §1

[11] = compound: NC(=O)Nc1cc(-c2cccc(F)c2)sc1C(=O)N[C@H]1CCCNC1
In short: as §1

[12] = compound: NC(=O)c1cnc(N[C@@H]2CCCC[C@@H]2N)nc1Nc1cccc(-n2nccn2)c1
In short: as §1

[13] = compound: NC1(c2ccc(-c3nc4ccn5c(=O)[nH]nc5c4cc3-c3ccccc3)cc2)CCC1
In short: as §1

[14] = compound: NCC(=O)Nc1ccc(-n2nc(C(F)(F)F)cc2-c2ccc3c(ccc4ccccc43)c2)cc1
In short: as §1

[15] = compound: Nc1ccccc1NC(=O)c1ccc(CNC(=O)OCc2cccnc2)cc1 [entinostat]
In short: as §1

[16] = compound: O=C(CCCCCCC(=O)Nc1ccccc1)NO [vorinostat]
In short: as §1

[17] = compound: O=C(CCCCCCNC(=O)c1cnc(N(c2ccccc2)c2ccccc2Cl)nc1)NO [citarinostat]
In short: as §1

[18] = compound: O=C(O)c1ccc2c(c1)nc(Nc1cccc(Cl)c1)c1ccncc12 [silmitasertib]
In short: as §1

[19] = compound: O=C1NC(=O)C(c2cnc3ccccn23)=C1c1cn2c3c(cc(F)cc13)CN(C(=O)N1CCCCC1)CC2
In short: as §1

[20] = compound: c1cc(OCCN2CCCCC2)cc(-c2n[nH]c3ccc(-c4nnc[nH]4)cc23)c1
In short: as §1

Measured: log2 fold change

CD46 isoform 2 (UniProt P15529)
inactive: [1] 0.002 | [2] -0.023 | [3] 0.018 | [4] -0.027 | [5] -0.034 | [6] 0.018 | [7] 0.078 | [8] 0.012 | [9] 0.005 | [10] 0.001 | [11] -0.063 | [12] 0.056 | [13] 0.05 | [14] 0.059 | [15] -0.029 | [16] -0.018 | [17] 0.054 | [18] -0.084 | [19] -0.075 | [20] -0.069

CBX1 (UniProt P83916)
inactive: [1] -0.037 | [2] -0.025 | [3] 0.141 | [4] -0.089 | [5] 0.084 | [6] -0.003 | [7] -0.034 | [8] 0.011 | [9] -0.039 | [10] 0.066 | [11] 0.02 | [12] -0.032 | [13] 0.025 | [14] 0.004 | [15] 0.017 | [16] -0.036 | [17] -0.035 | [18] 0.045 | [19] 0.006 | [20] -0.034

CBLB (UniProt Q13191)
inactive: [1] -0.017 | [2] -0.065 | [3] 0.021 | [4] 0.012 | [5] 0.018 | [6] -0.06 | [7] 0.053 | [8] 0.034 | [9] 0.049 | [10] -0.03 | [11] -0.009 | [12] -0.02 | [13] 0.008 | [14] -0.17 | [15] -0.042 | [16] 0 | [17] 0.089 | [18] 0.007 | [19] -0.135 | [20] -0.054

CCAR1 (UniProt Q8IX12)
inactive: [1] 0.036 | [2] 0.036 | [3] -0.055 | [4] -0.033 | [5] -0.112 | [6] -0.095 | [7] 0.079 | [8] 0.019 | [9] -0.091 | [10] 0.122 | [11] 0 | [12] -0.068 | [13] -0.198 | [14] -0.035 | [15] 0.021 | [16] 0.067 | [17] 0.018 | [18] -0.049 | [19] -0.043 | [20] -0.016

CBR1 (UniProt P16152)
active: [20] 0.235
inactive: [1] 0 | [2] 0.011 | [3] -0.012 | [4] 0.003 | [5] -0.02 | [6] 0.022 | [7] 0.081 | [8] -0.031 | [9] -0.044 | [10] -0.01 | [11] -0.002 | [12] 0.025 | [13] -0.029 | [14] 0.037 | [15] -0.008 | [16] -0.041 | [17] 0.033 | [18] -0.011 | [19] -0.039

CD55 isoform 7 (UniProt P08174)
inactive: [1] 0.168 | [2] -0.06 | [3] 0.086 | [4] 0.027 | [5] 0.096 | [6] -0.026 | [7] -0.051 | [8] -0.012 | [9] -0.027 | [10] -0.075 | [11] -0.048 | [12] 0.028 | [13] 0.128 | [14] 0.108 | [15] 0.018 | [16] -0.044 | [17] 0.009 | [18] -0.006 | [19] -0.043 | [20] -0.047

CCDC90B (UniProt Q9GZT6)
inactive: [1] -0.025 | [2] -0.016 | [3] 0.06 | [4] 0.003 | [5] 0.066 | [6] -0.04 | [7] 0.099 | [8] 0.144 | [9] 0.048 | [10] 0.033 | [11] 0.006 | [12] 0.035 | [13] -0.005 | [14] 0.027 | [15] 0.04 | [16] -0.027 | [17] 0.032 | [18] -0.002 | [19] -0.024 | [20] -0.045

CDC27 isoform 2 (UniProt P30260)
inactive: [1] 0.016 | [2] 0.016 | [3] -0.005 | [4] 0.004 | [5] -0.019 | [6] -0.01 | [7] -0.037 | [8] -0.04 | [9] -0.006 | [10] -0.023 | [11] 0.005 | [12] -0.006 | [13] -0.033 | [14] -0.027 | [15] -0.03 | [16] 0.008 | [17] 0.013 | [18] 0.029 | [19] -0.01 | [20] -0.064

CD58 (UniProt P19256)
inactive: [1] 0.047 | [2] -0.005 | [3] 0.057 | [4] -0.053 | [5] 0.026 | [6] -0.041 | [7] 0 | [8] -0.028 | [9] -0.031 | [10] 0.034 | [11] -0.093 | [12] 0.035 | [13] 0.106 | [14] 0.046 | [15] -0.053 | [16] 0.012 | [17] 0.073 | [18] -0.046 | [19] 0.013 | [20] -0.079

CCDC25 (UniProt Q86WR0)
inactive: [1] 0 | [2] 0.122 | [3] -0.006 | [4] -0.068 | [5] -0.026 | [6] -0.022 | [7] 0.008 | [8] -0.013 | [9] -0.053 | [10] 0.175 | [11] -0.001 | [12] -0.054 | [13] -0.015 | [14] 0 | [15] 0.029 | [16] 0.112 | [17] 0.076 | [18] -0.003 | [19] 0.008 | [20] -0.044

CCT3 (UniProt P49368)
inactive: [1] -0.017 | [2] -0.023 | [3] -0.049 | [4] 0.008 | [5] 0.002 | [6] 0 | [7] 0.009 | [8] -0.016 | [9] 0.026 | [10] 0.004 | [11] -0.027 | [12] 0.012 | [13] 0.007 | [14] 0.04 | [15] -0.017 | [16] 0 | [17] -0.013 | [18] -0.026 | [19] -0.068 | [20] -0.01

CAVIN1 (UniProt Q6NZI2)
inactive: [1] 0.114 | [2] 0.004 | [3] -0.047 | [4] 0.104 | [5] -0.001 | [6] -0.11 | [7] -0.157 | [8] -0.204 | [9] 0.125 | [10] -0.067 | [11] 0.034 | [12] -0.07 | [13] 0.046 | [14] 0.074 | [15] 0.008 | [16] 0.004 | [17] -0.004 | [18] 0.041 | [19] 0.108 | [20] -0.087

Two records drawn at random from those above:
CD58 (UniProt P19256)
inactive: [1] 0.047 | [2] -0.005 | [3] 0.057 | [4] -0.053 | [5] 0.026 | [6] -0.041 | [7] 0 | [8] -0.028 | [9] -0.031 | [10] 0.034 | [11] -0.093 | [12] 0.035 | [13] 0.106 | [14] 0.046 | [15] -0.053 | [16] 0.012 | [17] 0.073 | [18] -0.046 | [19] 0.013 | [20] -0.079

CBLB (UniProt Q13191)
inactive: [1] -0.017 | [2] -0.065 | [3] 0.021 | [4] 0.012 | [5] 0.018 | [6] -0.06 | [7] 0.053 | [8] 0.034 | [9] 0.049 | [10] -0.03 | [11] -0.009 | [12] -0.02 | [13] 0.008 | [14] -0.17 | [15] -0.042 | [16] 0 | [17] 0.089 | [18] 0.007 | [19] -0.135 | [20] -0.054

(continued)

CARS2 (UniProt Q9HA77)
inactive: [1] -0.001 | [2] -0.055 | [3] -0.024 | [4] 0.053 | [5] -0.067 | [6] -0.002 | [7] -0.012 | [8] -0.007 | [9] -0.001 | [10] -0.028 | [11] -0.009 | [12] -0.037 | [13] -0.002 | [14] -0.077 | [15] -0.033 | [16] 0.028 | [17] -0.012 | [18] 0.047 | [19] -0.075 | [20] 0.007

CCDC9 (UniProt Q9Y3X0)
inactive: [1] -0.011 | [2] -0.032 | [3] 0.002 | [4] 0.117 | [5] 0.072 | [6] 0.028 | [7] -0.046 | [8] -0.05 | [9] -0.004 | [10] -0.038 | [11] 0.021 | [12] 0.034 | [13] 0.121 | [14] 0.02 | [15] -0.088 | [16] -0.051 | [17] -0.069 | [18] -0.051 | [19] 0.021 | [20] -0.015

CD97 (UniProt P48960)
inactive: [1] -0.039 | [2] -0.084 | [3] 0.003 | [4] -0.002 | [5] 0.002 | [6] 0.016 | [7] -0.028 | [8] 0.002 | [9] 0.042 | [10] 0.043 | [11] -0.056 | [12] 0.082 | [13] 0.017 | [14] 0.051 | [15] -0.055 | [16] -0.079 | [17] 0.065 | [18] 0.015 | [19] -0.009 | [20] -0.103

CDC37L1 (UniProt Q7L3B6)
inactive: [1] -0.215 | [2] 0.027 | [3] -0.026 | [4] -0.167 | [5] -0.088 | [6] 0.022 | [7] 0.018 | [8] 0.121 | [9] 0.034 | [10] 0.172 | [11] -0.061 | [12] -0.074 | [13] 0.018 | [14] 0.033 | [15] -0.011 | [16] -0.017 | [17] -0.064 | [18] 0.07 | [19] -0.022 | [20] -0.102
